From paper PMC7075897 come the findings set out here.

Results are given in words; binding and its absence hold for the method and conditions named. In cells and extracts the contact can be indirect. Here binding means that the protein was enriched with, or labelled near, the bait; the list need not be complete. Tags and fused reporters may be left off the sequences shown.

For assay [1], the target named is T1, EcR (isoform A) fused to BioID2 through a 25 nm GS linker, marked with 3xFLAG (Drosophila melanogaster) (UniProt P34021).
T1 sequence: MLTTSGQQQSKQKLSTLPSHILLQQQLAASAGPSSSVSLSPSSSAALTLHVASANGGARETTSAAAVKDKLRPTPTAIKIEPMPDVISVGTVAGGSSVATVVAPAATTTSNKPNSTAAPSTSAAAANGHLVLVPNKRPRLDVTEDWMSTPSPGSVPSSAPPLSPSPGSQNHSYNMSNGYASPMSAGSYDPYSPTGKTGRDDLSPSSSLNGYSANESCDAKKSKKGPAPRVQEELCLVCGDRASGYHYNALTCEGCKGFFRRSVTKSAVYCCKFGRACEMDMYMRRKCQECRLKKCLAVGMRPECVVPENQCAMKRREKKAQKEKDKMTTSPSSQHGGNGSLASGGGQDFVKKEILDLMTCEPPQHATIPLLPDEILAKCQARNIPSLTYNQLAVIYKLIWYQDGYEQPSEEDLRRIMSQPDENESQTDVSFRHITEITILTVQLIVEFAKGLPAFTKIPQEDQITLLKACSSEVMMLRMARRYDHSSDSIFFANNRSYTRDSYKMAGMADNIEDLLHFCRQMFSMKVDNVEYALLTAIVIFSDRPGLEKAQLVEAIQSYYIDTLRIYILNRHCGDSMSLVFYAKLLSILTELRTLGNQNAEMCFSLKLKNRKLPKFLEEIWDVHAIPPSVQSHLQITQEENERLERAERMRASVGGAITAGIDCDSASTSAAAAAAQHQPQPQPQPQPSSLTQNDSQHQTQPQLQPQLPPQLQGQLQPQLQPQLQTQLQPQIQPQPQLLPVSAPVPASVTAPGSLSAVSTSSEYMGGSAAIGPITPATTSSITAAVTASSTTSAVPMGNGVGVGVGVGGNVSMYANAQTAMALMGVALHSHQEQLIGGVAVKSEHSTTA
In words: proximity labelling; BioID2 fused to EcR or Usp, stably expressed in S2 cells; biotin 50 nM, 20E or DMSO for 14 h; nuclear extract, Streptavidin-Agarose precipitation, LC-MS/MS.

For assay [2], the target named is T2, Usp fused to BioID2 through a 25 nm GS linker, marked with 3xFLAG (Drosophila melanogaster) (UniProt P20153).
T2 sequence: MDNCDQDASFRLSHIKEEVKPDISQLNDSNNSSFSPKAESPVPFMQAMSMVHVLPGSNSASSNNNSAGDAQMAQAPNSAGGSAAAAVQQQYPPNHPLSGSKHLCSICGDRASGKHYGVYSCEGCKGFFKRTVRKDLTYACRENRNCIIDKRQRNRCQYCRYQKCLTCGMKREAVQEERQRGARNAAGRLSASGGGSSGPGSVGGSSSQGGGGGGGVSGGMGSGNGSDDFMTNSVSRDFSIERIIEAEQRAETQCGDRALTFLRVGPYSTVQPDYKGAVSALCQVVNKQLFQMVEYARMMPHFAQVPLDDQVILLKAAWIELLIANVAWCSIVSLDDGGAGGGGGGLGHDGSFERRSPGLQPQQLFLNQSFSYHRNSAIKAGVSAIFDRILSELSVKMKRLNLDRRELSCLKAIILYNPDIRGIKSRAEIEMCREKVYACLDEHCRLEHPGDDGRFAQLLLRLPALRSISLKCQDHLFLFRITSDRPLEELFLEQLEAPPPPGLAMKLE
The description is as above.

Assay [3] addresses T3, EcR (isoform A) fused to APEX2 through a 25 nm GS linker, marked with 3xFLAG (Drosophila melanogaster) (UniProt P34021).
T3 sequence: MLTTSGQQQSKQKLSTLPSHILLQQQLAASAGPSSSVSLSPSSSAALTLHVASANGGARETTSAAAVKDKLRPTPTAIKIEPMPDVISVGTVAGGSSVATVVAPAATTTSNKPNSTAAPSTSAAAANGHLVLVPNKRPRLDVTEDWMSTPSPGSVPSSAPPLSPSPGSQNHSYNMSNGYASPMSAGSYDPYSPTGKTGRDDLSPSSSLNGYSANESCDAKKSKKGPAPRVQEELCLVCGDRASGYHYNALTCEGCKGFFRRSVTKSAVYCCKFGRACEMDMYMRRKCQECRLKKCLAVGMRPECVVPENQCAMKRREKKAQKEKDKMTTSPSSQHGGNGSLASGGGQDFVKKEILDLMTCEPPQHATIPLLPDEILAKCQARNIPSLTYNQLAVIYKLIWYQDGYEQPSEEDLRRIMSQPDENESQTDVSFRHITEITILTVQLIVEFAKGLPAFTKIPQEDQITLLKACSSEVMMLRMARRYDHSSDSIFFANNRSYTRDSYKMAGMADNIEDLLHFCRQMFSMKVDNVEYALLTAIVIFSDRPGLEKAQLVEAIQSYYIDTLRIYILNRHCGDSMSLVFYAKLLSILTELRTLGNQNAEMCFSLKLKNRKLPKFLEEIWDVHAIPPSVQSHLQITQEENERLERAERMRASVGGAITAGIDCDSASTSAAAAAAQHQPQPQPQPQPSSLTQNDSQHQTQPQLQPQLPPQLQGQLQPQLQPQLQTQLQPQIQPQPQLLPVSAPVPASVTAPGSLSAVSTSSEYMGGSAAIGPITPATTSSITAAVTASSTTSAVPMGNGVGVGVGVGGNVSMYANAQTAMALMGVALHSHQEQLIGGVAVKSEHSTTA
In words: proximity labelling; APEX2 fused to EcR or Usp, stably expressed in S2 cells; 20E or DMSO 1 h, biotin-phenol 30 min, 1 mM H2O2 5 min; nuclear extract, Streptavidin-Agarose precipitation, LC-MS/MS.

Assay [4] deals with T4, Usp fused to APEX2 through a 25 nm GS linker, marked with 3xFLAG (Drosophila melanogaster) (UniProt P20153).
T4 sequence: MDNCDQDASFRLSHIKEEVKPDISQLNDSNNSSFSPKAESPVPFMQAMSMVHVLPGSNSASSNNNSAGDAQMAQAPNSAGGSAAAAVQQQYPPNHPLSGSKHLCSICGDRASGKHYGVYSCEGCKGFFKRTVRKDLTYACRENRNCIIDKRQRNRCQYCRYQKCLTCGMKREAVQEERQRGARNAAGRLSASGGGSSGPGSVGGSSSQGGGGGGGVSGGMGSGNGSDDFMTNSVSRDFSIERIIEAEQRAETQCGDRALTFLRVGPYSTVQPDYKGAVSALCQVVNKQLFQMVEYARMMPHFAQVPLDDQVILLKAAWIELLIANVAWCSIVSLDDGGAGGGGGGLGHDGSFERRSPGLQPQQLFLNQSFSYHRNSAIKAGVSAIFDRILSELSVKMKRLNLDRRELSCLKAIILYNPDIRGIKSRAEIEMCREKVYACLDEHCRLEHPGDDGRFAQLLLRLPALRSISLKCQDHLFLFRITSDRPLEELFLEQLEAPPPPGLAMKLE
The description is as above.

B1: Nup50 (protein, UniProt Q7K0D8 1-564)
chain: MAGKRQATSNLNHENWDLEEEPEERGTFRTATEEELKTRVIKKARRKIAGGSSAAEEDGAEEKTAEPKSVFSGFSGFGKPAASPAAGSPFSFLANVTAPATTSSSEPKKSAFSFGFSSSSSSADRPVSTSICGTASTSSTAPSPLPAKESTSTVDGAKPTTSIFGNISAAKKESSEAKTSSSSTSLTSTMETSEYRESVADLNRSVIKFLQDQMGKSPYCILTPVFKNYDEHLKDLQDEESARTNSTKSKTAQARSQEPVAKVSRASSPPKAATTFTFGKPSAPIGASVSPLAKKPNCTITSGGTTTTTATPLVSFGSTASFTAPVPSSSSIFSLTAKPTGEAKSDDTPKSSIFSFGAKDTTTKKDEPNFSAPKTNGFSFGLKSNNDDKPSTSLFAGFGKAPGGAGDGAKGFSFTNSATPFSLGNIHPPAAAAAPAEEEKEEDTPPKVEFKQVVEDDAIYSKRCKVFIKKDKDFGDRGVGTLYLKPVKDSEKIQLLVRADTNLGNILVNLILSKGIPCQRMGKNNVLMVCVPTPEDSKATSLLLRVKTGDEADDLLEKIKEHIK
On to B1, for which the binding entry in assay [1] and in assay [2] was “binds” each time.

B2: Uba2 (protein, UniProt Q7KJV6 1-700)
chain: MAAAINGVFPPTLQELVKKSKVLVVGAGGIGCEVLKNLVLSGFTDIEIIDLDTIDLSNLNRQFLFHREHVGKSKARVARESALSFNPDAKITAYHDSVTSTDYGVNFFKKFDLVLSALDNRAARNHVNRMCLNADVPLIESGTAGYNGQVELIKRGLTQCYECTPKDKQRSFPGCTIRNTPSEPIHCIVWAKHLFNQLFGESLEDEDISPDAADPDAKEKDGGDGNGEPKGDGKEKGEESKEEKEAKEDTANGNIMRINTRQWAKDSNYDAGKLFNKFFNEDITYLLRMSNLWKTRKAPVPVQWDTLLPEGSSGDQKDVAKQHHKVWSIEECAQVFANSLKELSANFLKLEGDDTLAWDKDDQPAMDFVAACANVRSHIFDIERKSRFEIKSMAGNIIPAIATTNAITAGISVMRAFKVLEAKWEQCKAVYARLRPNARNHFLVPDASLPGPNPNCHVCASDPAITLKIDTKRMRIKELRDEVLVKTLNMLNPDVTVQSNGSILISSEEGETECNDGKLLSELNIVDGVILKCDDFFQNYELSIIISHFDAERDENLFEVVADASQLKPKDEDQKEAVKDKEDEPKSAKKRSTNGEGDSKDDGPSTSKRSRPNEVVEEDDDDCLVIEEDEDQADVVVVATDKLSVQSPPKSGSKRKPCEVIEDEDITEILESSDDEPAGPTKCKRSRLDDSNPVAVISID
As to B2, the binding entry in assay [3] and in assay [4] was “binds” in each case.

B3: Dp1 (protein, UniProt Q7KN75 1-1301)
chain: MQAAAVMEETNNATTIEQQPIALINGQEQVANEQQPSSPTSVATPTSTTSGGTGNATPAFSYDDLFPALPANTSAQSQSGASGSTLARVTSSQKTHIVHVPCKERKSTESEKFGEGESKRICQQITKETGAQIEIVSGKNQSLTFLIKGKQSELLDARRKILMGFSTQASRQVTVPREHFRVILGKGGQRLREIERVTATRINIPSQSDESEFITIAGTKEGIAQAEQEIRQLSAEQYKKSSDRITVPKVYHPFIVGPYSENLNKLQEETGARINVPPQQVQKDEIVISGEKDAVAAAKAKVEAIYKDMEKKCSTVSVEVAKPKHRYVIGPKGSTIAEILQLTGVSVEMPPNDSPSETITLRGPQVALGNALTVVYQKSNSVKSVEINAAHWIHKYVIGRKGANMKQLEEDCPNVNVNCLEDKIKLEGDPENVDRAVAYLSEIIKNYEENFTFEVMTVNPSYYKHIIGKAGANVNRLKDELKVNINIEEREGQNNIRIEGPKEGVRQAQLELQEKIDKLENEKSKDVIIDRRLHRSIIGAKGEKIREVKDRYRQVTITIPTPQENTDIVKLRGPKEDVDKCHKDLLKLVKEIQESSHIIEVPIFKQFHKFVIGKGGANIKKIRDETQTKIDLPAEGDTNEVIVITGKKENVLEAKERIQKIQNELSDIVTEEVQIPPKYYNSIIGTGGKLISSIMEECGGVSIKFPNSDSKSDKVTIRGPKDDVEKAKVQLLELANERQLASFTAEVRAKQQHHKFLIGKNGASIRKIRDATGARIIFPSNEDTDKEVITIIGKEESVKKAREQLEAIIKECDEVTEGEVSVDPKHHKHFVAKRGFILHRISEECGGVMISFPRVGINSDKVTIKGAKDCIEAARQRIEEIVADLEAQTTIEVVIPQRHHRTIMGARGFKVQQVTFEFDVQIKFPDRDATEPVEGLTNGGSGENGGENEGQEGEQEVEKEAEQEPVRQCDVIRITGRIEKCEAAKQALLDLIPIEEELSVPFDLHRTIIGPRGANVRQFMSKHDVHVELPPSELKSDVIKVCGTPARVAEAREALVKMIEDYEADRADRELRSFVLQVDVDTEFHSKLIGRHGAVINKLRADHDVIISLPKRDEPNDRIISITGYQANAEAARDAILEIVGDPETLHREVIEIDKRIHPHLIGQRRRTIRKIIEDNKVNIKFSADDDNPNSIFISGKIEDVENVKELLFGMAEDYERDYLDNVAIAPPTIGAFLTGQGSGSDAAGASENGFVIKDAPWEKQKQAKNLTAPNTQSQEDFPHFAAGGAPVASTPITSVWGPKN
For the molecule B3, the binding result in assay [1] and in assay [2] was “binds” each time.

B4: cg10077 (protein, UniProt Q8MZI3 1-818)
chain: MNMYNGQMNAFGGGGGGGAGGLAGGMVPNRMGGGAPGGGPGGAGMFQRNRSAPYPGFNGHGPANGGQRRMNGGGPSMGPGGPRNQDGFGGQNGGQRSSNHGAHLPKIVWSEVNLTPFRKNFYKPCDSVLARTVGETETFLTSNEITIKGDQVPTPSIEFEEGGFPDYVMNEIRKQGFAKPTAIQAQGWPIAMSGRDLVGVAQTGSGKTLAYVLPAVVHINNQPRLERGDGPIALVLAPTRELAQQIQQVAIEFGSNTHVRNTCIFGGAPKGQQARDLERGVEIVIATPGRLIDFLERGTTSLKRCTYLVLDEADRMLDMGFEPQIRKIMQQIRPDRQVLMWSATWPKEVRQLAEEFLNNYIQVNIGSLSLSANHNILQIVDVCDENEKLMKLIKLLTDISAENETKTIIFVETKKRVDEITRNISRQGWRACAIHGDKSQQERDFVLSSFRNGRHSILVATDVAARGLDVDDVKFVINYDYPSNSEDYVHRIGRTGRSNNTGTAYTLFTHSNANKANDLIQVLREANQTINPKLMNMAMNGGYNKRGGGMGGGYRGGNGYQGRNPQMGGGYNGGNNYRNNNGPGATMNRNSFNGGSAGGPPRFDQKPRTSPPNQGGQGGYRGQGGGGYQGQQQQQQQQNGGVPFSRFNPNAACFEPNKPQNGPGSGPPQAQHQQQQQAQAAQQQHLLPDASVQAAMTAANYGVDQKRSRFSPYNMNFANMPPPAMNQQQAAAAQQQQQQQLQTPQQQQQQQQMQQPQAYGQYSSMSSSMATVSLNGGAAAVASSYRAPYAVPTQAAPYMMANGGDIFAYPPPPLPVQN
With B4, the binding entry in assay [1] and in assay [2] was “binds” each time.
